# Data reported in ChEMBL document CHEMBL4330088, “Targeting the immunity protein kinases for immuno-oncology” (Eur J Med Chem, 2019).
# Sequences of proteins named here, by UniProt entry; tags and fusion partners are left off. A change or cut given only in a name is not applied to a line headed by its entry.
# UniProt P42338: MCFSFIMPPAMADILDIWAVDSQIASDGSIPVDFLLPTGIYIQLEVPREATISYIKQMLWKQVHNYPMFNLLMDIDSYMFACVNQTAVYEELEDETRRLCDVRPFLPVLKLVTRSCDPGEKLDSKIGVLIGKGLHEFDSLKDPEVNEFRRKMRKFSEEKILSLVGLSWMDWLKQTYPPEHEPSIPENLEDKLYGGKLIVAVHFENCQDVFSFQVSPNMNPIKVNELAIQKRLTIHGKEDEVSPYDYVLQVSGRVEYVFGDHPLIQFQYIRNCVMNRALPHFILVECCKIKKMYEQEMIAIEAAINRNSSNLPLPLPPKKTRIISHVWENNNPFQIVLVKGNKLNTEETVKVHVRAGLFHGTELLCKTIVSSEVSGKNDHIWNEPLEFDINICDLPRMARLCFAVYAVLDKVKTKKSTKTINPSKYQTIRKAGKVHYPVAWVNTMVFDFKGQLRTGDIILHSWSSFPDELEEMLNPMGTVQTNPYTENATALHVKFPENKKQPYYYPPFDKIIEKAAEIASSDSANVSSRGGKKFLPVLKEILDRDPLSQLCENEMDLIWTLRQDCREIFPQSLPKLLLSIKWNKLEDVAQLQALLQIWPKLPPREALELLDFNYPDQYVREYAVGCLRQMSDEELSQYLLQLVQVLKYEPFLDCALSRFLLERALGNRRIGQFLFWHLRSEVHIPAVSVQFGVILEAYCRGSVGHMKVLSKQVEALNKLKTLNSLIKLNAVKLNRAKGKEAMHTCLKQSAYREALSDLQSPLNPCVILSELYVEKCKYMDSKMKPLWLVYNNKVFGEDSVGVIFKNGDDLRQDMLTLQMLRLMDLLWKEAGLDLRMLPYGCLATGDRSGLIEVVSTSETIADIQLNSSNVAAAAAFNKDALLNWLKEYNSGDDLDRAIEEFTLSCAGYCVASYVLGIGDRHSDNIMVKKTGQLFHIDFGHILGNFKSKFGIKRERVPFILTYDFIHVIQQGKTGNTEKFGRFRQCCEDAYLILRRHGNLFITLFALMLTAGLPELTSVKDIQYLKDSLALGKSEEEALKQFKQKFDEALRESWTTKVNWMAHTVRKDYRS
# Target: Phosphatidylinositol 4,5-bisphosphate 3-kinase catalytic subunit beta isoform (Homo sapiens, UniProt P42338)
# Assay: Inhibition of PI3Kbeta (unknown origin)
structure (smiles),measurement,value
O=C1NC(=O)/C(=C/c2ccc3nccnc3c2)S1,IC50,2700 nM
